Test results: patent US20250346630A1, “Engineering Peptides Using Peptide Epitope Linker Evolution” (AGENCY FOR SCIENCE, TECHNOLOGY AND RESEARCH, priority 2022, published 2025)
Results are given in words; binding and its absence hold for the method and conditions named. Some results given as binding are weak or reduced against the parent protein; the word gives no strength.

The chains behind the UniProt entries cited, without tags or fusion partners. Where a name states a change or a piece, a line headed by the entry shows the natural chain unless it says otherwise. A line that says so, or that is headed by a name, gives the form on record, which may keep a tag or linker.
UniProt P06730: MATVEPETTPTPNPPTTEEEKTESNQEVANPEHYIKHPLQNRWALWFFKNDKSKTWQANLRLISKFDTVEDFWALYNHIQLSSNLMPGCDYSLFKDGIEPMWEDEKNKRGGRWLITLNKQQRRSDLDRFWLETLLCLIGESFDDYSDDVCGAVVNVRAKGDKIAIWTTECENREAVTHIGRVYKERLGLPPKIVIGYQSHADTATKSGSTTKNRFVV
sortase-labelled N-terminally biotinylated eIF4E (P06730, form named): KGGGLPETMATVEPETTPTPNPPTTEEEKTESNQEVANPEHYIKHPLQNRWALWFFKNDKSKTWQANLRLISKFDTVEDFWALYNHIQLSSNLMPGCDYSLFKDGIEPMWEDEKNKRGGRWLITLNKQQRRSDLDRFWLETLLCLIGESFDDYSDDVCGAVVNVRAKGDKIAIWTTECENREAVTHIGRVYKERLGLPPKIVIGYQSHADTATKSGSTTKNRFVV

B1: negative control M4 (FLAG-tagged, expressed in HEK293 cells) (designed binder)
VH: MSEVQLVESGGGLVQPGGSLRLSSAISGFSISSTSIDWVRQAPGKGLEWVARISPSSGSTSYADSVKGRFTISADTSKNTVYLQMNSLRAEDTAVYYTGRVAKALNSSSPSFVVNTYSSFGFDYRGQGTLVTVSSGAA
notes: not shown: C-terminal 3x FLAG tag of the pCDNA3.1 vector
B2: … (peptide)
peptide displayed on M13 phage (pIII): AQSYTRMELLRL
B3: … (peptide)
peptide displayed on M13 phage (pIII): HYSRTDLLAYRW
B4: … (peptide)
peptide displayed on M13 phage (pIII): SGIQQRMIVTWP
B5: … (peptide)
peptide displayed on M13 phage (pIII): KLWSIPTNFLLP
B6: … (peptide)
peptide displayed on M13 phage (pIII): VEGQNLEALVTD
B7: … (peptide)
peptide displayed on M13 phage (pIII): TISYDRSTLFLF
B8: … (peptide)
peptide displayed on M13 phage (pIII): DSAKERLAVSGT
B9: … (peptide)
peptide displayed on M13 phage (pIII): LPRMMSDGEAGD
B10: … (peptide)
peptide displayed on M13 phage (pIII): YLMQTNQWQIAS
B11: … (peptide)
peptide displayed on M13 phage (pIII): CEMGYFGNC
modifications: two flanking Cys of the disulphide constrained C7C library
B12: … (peptide)
peptide displayed on M13 phage (pIII): CETGFFLKC
modifications: two flanking Cys of the disulphide constrained C7C library
B13: … (peptide)
peptide displayed on M13 phage (pIII): CELGFYRLC
modifications: two flanking Cys of the disulphide constrained C7C library
B14: … (peptide)
peptide displayed on M13 phage (pIII): CETGFFLRC
modifications: two flanking Cys of the disulphide constrained C7C library
B15: … (peptide)
peptide displayed on M13 phage (pIII): CETGYFSQC
modifications: two flanking Cys of the disulphide constrained C7C library
B16: … (peptide)
peptide displayed on M13 phage (pIII): CIHSPTSLC
modifications: two flanking Cys of the disulphide constrained C7C library
B17: … (peptide)
peptide displayed on M13 phage (pIII): CETGFYKTC
modifications: two flanking Cys of the disulphide constrained C7C library

target: eIF4E of the NanoBit eIF4E:eIF4G^604-646 system (UniProt P06730); experiment: NanoBit competition in HEK293 cells: co-expressed VH domain against the pair SmBIT-eIF4E : eIF4G-LgBIT [CONT.) C]

binding, binds:
B1

target: sortase-labelled N-terminally biotinylated eIF4E (UniProt P06730); experiment: M13 linear 12mer phage selection on immobilised biotinylated eIF4E, NGS abundance heat map, 3 replicate columns [CONT.) D]

binding, binds:
B2
B3
B4
B5
B6
B7
B8
B9
B10

target: sortase-labelled N-terminally biotinylated eIF4E (UniProt P06730); experiment: M13 C7C (disulphide constrained 7mer) phage selection on immobilised biotinylated eIF4E, NGS abundance heat map, 3 replicate columns [CONT.) C]

binding, binds:
B11
B12
B13
B14
B15
B16
B17
